In publication PMC12216052:
These are yes or no findings as the source states them, for the method shown.

Amino acid sequences for entries named in this document (tags omitted). Residues count along the entry.
UniProt P27037: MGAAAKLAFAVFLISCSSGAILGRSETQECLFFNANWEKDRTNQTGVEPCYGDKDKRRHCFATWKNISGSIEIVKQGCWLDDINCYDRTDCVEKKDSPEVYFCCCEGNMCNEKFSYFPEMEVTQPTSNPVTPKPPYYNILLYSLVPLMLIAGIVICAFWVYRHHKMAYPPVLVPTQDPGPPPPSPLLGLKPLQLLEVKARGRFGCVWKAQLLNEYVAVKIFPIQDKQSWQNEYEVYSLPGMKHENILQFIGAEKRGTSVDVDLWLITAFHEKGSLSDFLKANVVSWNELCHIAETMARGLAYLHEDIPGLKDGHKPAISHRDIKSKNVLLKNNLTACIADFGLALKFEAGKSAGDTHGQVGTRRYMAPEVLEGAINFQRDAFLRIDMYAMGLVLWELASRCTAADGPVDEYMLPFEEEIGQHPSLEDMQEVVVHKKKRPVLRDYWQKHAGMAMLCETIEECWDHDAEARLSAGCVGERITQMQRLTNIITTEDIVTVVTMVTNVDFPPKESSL
UniProt P46531, residues 20-1426: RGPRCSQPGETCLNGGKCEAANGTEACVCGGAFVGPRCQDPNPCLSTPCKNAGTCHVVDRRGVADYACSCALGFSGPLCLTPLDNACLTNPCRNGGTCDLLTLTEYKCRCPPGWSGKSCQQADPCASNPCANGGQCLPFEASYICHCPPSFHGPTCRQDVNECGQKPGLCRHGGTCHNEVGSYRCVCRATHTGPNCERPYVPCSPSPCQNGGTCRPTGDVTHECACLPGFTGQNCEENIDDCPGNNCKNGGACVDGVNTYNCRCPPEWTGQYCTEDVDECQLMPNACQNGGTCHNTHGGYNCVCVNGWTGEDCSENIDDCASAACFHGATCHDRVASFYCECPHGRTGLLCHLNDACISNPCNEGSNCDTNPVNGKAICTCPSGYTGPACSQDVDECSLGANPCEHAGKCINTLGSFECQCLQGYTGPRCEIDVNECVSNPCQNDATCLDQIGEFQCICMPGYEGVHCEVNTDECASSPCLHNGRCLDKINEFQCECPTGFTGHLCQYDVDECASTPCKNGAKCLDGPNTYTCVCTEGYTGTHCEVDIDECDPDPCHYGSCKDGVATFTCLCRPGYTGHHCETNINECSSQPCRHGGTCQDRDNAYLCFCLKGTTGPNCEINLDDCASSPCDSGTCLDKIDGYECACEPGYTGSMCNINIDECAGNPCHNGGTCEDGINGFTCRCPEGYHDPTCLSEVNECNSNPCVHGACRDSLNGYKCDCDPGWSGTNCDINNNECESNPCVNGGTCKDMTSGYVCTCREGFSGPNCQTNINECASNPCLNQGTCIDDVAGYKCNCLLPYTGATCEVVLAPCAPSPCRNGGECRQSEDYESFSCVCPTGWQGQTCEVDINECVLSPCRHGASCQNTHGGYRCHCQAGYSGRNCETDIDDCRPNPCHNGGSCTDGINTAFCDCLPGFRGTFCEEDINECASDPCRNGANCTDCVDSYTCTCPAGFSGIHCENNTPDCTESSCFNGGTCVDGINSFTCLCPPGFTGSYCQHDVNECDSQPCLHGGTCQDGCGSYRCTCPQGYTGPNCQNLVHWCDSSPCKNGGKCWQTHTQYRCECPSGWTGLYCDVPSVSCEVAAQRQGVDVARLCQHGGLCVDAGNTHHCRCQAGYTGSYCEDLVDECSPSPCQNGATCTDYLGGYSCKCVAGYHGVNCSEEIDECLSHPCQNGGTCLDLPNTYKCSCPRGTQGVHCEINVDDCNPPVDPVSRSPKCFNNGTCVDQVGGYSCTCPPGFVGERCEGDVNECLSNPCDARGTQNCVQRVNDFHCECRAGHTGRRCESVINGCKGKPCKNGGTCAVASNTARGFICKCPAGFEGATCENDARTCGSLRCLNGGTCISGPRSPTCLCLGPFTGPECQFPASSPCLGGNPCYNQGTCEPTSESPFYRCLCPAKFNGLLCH
UniProt P80370, residues 24-260: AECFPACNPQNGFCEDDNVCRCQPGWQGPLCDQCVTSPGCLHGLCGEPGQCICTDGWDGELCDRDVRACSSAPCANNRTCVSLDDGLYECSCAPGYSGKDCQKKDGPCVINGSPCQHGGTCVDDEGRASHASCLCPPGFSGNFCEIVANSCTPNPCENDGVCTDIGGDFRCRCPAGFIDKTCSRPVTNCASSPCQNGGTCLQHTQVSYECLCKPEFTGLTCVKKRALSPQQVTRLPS

How the values were obtained:
[1] = target: ACVR2A with Fc-His tags (human) (UniProt P27037); test: SPR; ~400 RU wild-type or mutant ACVR2B or ACVR2A with Fc-His tags amine-coupled on CM5; DLK1 ECD or DLK1 EGF5-6 as analyte; HBS with 0.005% P20 and 0.1% BSA, 20 °C; steady state, 1:1 Langmuir model; reference: Tim-3; both purified
[2] = target: Notch1(EGF1-36) (amino acids 20-1426) (human) (UniProt P46531); test: condition: concentrations greater than 10 micromolar; SPR; ~300 RU biotinylated NOTCH1(EGF1-36) on a streptavidin chip; DLL4(N-5) or DLK1 ECD as analyte; HBS-P20-BSA with 1 mM CaCl2; reference: ZNRF3 ECD; both purified

binding [1]: no binding
binding [2]: no binding
Substance: Human DLK1(ECD) (amino acids 24-260) (from UniProt P80370 24-260) (domain or fragment)
